For 1 substance, binding results are on record in paper doi:10.1101/2025.11.26.690747.

Results are given in words; binding and its absence hold for the method and conditions named. In cells and extracts the contact can be indirect. A result given as binding can be weak or reduced; the word gives no strength. Sequences can lack the tags named with a protein.

This assay addresses T1, PfBDP1-HA-DD (P. falciparum) (UniProt Q8IJ72).
T1 sequence: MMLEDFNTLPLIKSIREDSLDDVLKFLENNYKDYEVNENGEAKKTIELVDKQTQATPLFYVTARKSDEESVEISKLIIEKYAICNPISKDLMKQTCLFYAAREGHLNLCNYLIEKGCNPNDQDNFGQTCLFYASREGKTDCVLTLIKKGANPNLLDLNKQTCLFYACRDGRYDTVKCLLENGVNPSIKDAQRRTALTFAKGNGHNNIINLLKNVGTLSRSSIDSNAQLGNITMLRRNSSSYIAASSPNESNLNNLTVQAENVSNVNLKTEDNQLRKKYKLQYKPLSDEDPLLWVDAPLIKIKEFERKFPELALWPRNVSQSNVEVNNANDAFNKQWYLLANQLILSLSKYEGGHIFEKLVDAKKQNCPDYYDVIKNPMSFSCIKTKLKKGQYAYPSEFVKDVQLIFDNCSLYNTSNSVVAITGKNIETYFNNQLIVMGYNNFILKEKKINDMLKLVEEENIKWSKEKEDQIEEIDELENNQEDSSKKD
Description: co-IP.

On to PfAP2-I-GFP (P. falciparum), for which the binding entry is given as “binds”.
